No constants are given. Whether binding was seen depends on the method and setting. Binding seen in cells or lysates may run through a third protein. Sequences can lack the tags named with a protein.
How the values were obtained:
Flag-HA-BBS1 = target: T1, Flag-HA-BBS1 (UniProt Q8NFJ9); assay: co-IP
T1 sequence: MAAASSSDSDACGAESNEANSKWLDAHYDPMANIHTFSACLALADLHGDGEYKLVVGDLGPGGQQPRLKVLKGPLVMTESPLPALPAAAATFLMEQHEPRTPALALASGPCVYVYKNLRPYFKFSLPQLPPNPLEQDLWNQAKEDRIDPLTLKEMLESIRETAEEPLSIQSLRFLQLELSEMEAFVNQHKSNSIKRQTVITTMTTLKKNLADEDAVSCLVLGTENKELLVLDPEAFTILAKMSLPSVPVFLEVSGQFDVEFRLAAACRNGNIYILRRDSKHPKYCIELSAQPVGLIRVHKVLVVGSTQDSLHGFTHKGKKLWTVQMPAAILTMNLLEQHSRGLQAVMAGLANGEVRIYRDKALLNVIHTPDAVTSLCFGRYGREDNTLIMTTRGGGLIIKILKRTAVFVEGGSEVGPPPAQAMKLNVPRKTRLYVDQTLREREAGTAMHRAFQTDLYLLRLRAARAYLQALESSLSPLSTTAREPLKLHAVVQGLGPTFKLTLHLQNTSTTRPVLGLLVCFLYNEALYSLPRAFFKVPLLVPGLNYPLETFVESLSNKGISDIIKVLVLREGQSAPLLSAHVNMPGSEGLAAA

Protein sequences, listed by entry. Tags and fused reporters are not part of them.
UniProt P51149: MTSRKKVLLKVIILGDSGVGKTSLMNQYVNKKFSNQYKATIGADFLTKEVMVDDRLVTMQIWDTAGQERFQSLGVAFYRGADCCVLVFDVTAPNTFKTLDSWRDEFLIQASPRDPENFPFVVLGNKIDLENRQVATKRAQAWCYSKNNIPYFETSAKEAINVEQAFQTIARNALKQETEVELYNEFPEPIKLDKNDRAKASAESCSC
UniProt Q15075: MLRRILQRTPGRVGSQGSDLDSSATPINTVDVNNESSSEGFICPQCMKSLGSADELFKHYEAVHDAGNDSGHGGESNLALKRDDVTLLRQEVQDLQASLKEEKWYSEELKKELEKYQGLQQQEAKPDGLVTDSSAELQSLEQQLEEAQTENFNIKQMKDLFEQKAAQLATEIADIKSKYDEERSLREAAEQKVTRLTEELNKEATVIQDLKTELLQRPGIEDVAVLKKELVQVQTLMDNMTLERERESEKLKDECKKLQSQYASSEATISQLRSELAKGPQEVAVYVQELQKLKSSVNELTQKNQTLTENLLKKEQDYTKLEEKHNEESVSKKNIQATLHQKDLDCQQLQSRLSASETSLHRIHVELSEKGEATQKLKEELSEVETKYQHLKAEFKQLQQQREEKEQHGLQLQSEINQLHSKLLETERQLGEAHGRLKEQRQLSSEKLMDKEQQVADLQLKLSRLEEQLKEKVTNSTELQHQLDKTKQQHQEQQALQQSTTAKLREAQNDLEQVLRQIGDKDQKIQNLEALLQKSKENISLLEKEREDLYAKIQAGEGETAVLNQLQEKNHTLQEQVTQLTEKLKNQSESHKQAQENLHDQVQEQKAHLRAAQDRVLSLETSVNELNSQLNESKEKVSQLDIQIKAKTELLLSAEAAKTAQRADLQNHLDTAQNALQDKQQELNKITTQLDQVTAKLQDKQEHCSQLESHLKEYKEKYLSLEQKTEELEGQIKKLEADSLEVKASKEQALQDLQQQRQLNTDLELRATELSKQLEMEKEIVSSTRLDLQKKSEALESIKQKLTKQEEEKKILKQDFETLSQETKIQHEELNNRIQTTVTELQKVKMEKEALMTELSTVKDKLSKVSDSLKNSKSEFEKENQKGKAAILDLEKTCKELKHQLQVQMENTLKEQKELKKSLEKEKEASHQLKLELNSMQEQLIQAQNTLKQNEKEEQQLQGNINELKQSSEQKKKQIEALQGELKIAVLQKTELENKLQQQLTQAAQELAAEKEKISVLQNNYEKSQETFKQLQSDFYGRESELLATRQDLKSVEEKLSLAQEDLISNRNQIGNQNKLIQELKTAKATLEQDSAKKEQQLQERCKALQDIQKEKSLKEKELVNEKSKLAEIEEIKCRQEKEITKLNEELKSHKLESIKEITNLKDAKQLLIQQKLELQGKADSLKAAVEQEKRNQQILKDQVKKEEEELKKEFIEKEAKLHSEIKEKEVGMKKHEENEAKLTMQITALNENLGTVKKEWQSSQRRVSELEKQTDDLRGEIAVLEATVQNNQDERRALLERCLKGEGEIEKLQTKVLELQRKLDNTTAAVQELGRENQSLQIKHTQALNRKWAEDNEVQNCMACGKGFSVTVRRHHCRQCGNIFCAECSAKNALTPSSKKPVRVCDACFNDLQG

Flag-HA-BBS4 = target: T2, Flag-HA-BBS4 (UniProt Q96RK4); assay: co-IP
T2 sequence: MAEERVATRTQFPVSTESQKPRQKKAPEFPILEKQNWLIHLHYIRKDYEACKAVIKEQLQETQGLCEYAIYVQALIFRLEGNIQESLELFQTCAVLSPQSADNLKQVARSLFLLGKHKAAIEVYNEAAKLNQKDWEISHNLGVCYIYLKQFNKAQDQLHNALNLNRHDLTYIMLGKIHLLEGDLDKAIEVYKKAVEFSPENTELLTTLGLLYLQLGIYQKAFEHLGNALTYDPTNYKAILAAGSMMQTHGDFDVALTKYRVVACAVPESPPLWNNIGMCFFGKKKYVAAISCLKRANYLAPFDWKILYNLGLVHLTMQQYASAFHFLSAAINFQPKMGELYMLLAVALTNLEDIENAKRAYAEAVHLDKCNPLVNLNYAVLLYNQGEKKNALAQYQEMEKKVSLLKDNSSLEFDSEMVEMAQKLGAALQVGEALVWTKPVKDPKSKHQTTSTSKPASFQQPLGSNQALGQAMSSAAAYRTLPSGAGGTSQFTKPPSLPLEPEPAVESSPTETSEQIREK

Substance | binding (Flag-HA-BBS1) | binding (Flag-HA-BBS4)
RAB7 (from UniProt P51149 1-207) | no binding | no binding
early endosome antigen 1 (from UniProt Q15075 1-1411) | no binding | no binding
